In patent US8426453B2 (Astellas Pharma Inc., priority 2006, dated 2013):
At least one compound was matched to its structure with a doubt left.

Tested on: SD rats
Test: Small intestine ulcer model (indomethacin-induced ulcer)
Type: in vivo
Settings: 10 mg/kg oral, 1 hour before and 9 hours after indomethacin 10 mg/kg oral, measured after 24 hours
Method: A test compound was suspended in a 0.5% methyl cellulose (MC) solution to prepare a chemical liquid having a concentration 5 ml/kg; and this was orally administered to SD rats (n=10 in each group). The test compound was controlled to be 10 mg/kg in every case. A control group was separately prepared, in which 5 ml/kg of the 0.5% MC solution was orally administered to the rats. After 1 hour, 10 mg/kg of NSAID, indomethacin (by Sigma) was orally administered to the rats, as a suspension in 0.5% MC solution (5 ml/kg). In 9 hours after the indomethacin administration, the test compound was again orally administered to every rat in the same amount as previously; and after 24 hours, the area of the ulcer formed in the small intestine was measured using a stereomicroscope (by Nikon) and a micrometer (by Olympus), and the data of 10 cases were averaged. The antiulceration potency (%) of the test compound was computed according to the following formula: Antiulceration Potency (%): [1−(mean ulcer area of compound-administered group/mean ulcer area of 0.5% MC-administered group)]×100.

COc1ccc2[nH]c([S+]([O-])Cc3ncc(C)c(OC)c3C)nc2c1 (stereo not shown) [omeprazole, reference compound]
Antiulceration potency (inhibitory potency), mean ulcer area in small intestine vs 0.5% MC group: ineffective
